Source: PubChem BioAssay AID493014 (National Center for Advancing Translational Sciences (NCATS), 2011)
The whole screen tested about 340,000 compounds, of which about 170 (0.05%) were called active. The shares of active, inactive and inconclusive entries below differ from those in the screen. Calls follow the shape of the dose curve; as a rule, active = well fitted inhibition curve with a large enough effect in the signal ratio, with a control signal flat (not every such curve was filed as active); inconclusive = small, poorly fitted or top-dose-only effect, or effect the other way, or a change in a side signal; inactive = flat fitted curve, though single readings scatter; the % refers to the signal ratio. Potencies of inconclusive entries are doubtful fits and often do not repeat.

test: qHTS Assay to Find Inhibitors of Chronic Active B-Cell Receptor Signaling; conditions: ABC-DLBCL IkBa-CBG/CBR reporter, luminescence ratio (green luciferase fused to IkBa over red control in TMD8 lymphoma cells), 4 h; activity change, negative = inhibition: at 46.1 µM (top of the series);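 as to activity change, negative = inhibition: plate controls were basal doxycycline-induced cells for no effect and cells given 10 µM MG132 for full effect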
How it was run: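 TMD8 human ABC-DLBCL cells with doxycycline-inducible IκBα–green luciferase fusion and unfused red luciferase, in 0.5% FBS medium; compounds up to 46 uM, 4 h at 37C. Green/red luminescence ratio, filter-overlap corrected, fitted to concentration-response curves.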
Potency is read from the fitted curve at half-maximal effect.

With `O=c1[nH]n2c(=O)c3c([nH]c2c1N=Nc1cccc(Cl)c1)CCC3` as the compound, how does the activity change, negative = inhibition read?
The activity change, negative = inhibition was inconclusive: -0.844%.

For `C=CC(O)(C#CCN(CC)CC)c1ccccc1` (stereo not given), which activity change, negative = inhibition is on record?
Its activity change, negative = inhibition is inconclusive: 1.7%.

For `C=CCc1cc(Cl)ccc1OCCOCCNC(C)(C)C`, which Potency is on record?
The Potency was inconclusive: 22.4 µM [falling, partial curve, poor fit].

Which Potency does the source give for `CCC(C)NC(=O)c1ccc(C2SCC(=O)N2Cc2ccccc2)cc1` (stereo not given) here?
The Potency was inconclusive: 10 µM [activator, partial curve].

For `C[C@]12c3[nH]c4ccccc4c3CCN1C(=O)C(CC(=O)NCc1cccc(C(F)(F)F)c1)C[C@@H]2C(=O)N1CCCCC1` (stereo not given in full), which Potency is on record?
Its Potency is inconclusive: 29.1 µM [falling, partial curve, poor fit].

Which activity change, negative = inhibition does the source give for `O=C(CSc1nc2ncccc2[nH]1)c1ccc2c(c1)OCO2` here?
Its activity change, negative = inhibition is inconclusive: -10.2%.

Which Potency does the source give for `COc1ccc(C2CC(C(F)(F)F)n3nc(C(=O)NCc4c(C)nn(C)c4C)c(Cl)c3N2)cc1` (stereo not given) here?
The Potency was inconclusive: 29.1 µM [falling, partial curve, poor fit].

Which Potency does the source give for `COc1ccc(/C(C)=N/NC(=O)CNC(=O)c2cccs2)cc1` here?
Its Potency is inconclusive: 6.31 µM [falling, single point].

With `COc1ccc(/C=C2/C(=O)ON=C2C)cc1Cl` as the compound, how does the activity change, negative = inhibition read?
Its activity change, negative = inhibition is “inactive”.

Which Potency does the source give for `O=C(Cn1cnc2ccccc21)Nc1ccc(F)c(F)c1` here?
The Potency was inconclusive: 15.8 µM [falling, single point].

For `O=C(/C=C/c1ccc[nH]1)c1ccc(F)cc1`, which activity change, negative = inhibition is on record?
The activity change, negative = inhibition was inconclusive: -10.3%.

With `COc1ccccc1NC(=O)CCc1nc2sc3c(c2c(=O)[nH]1)CCCC3` as the compound, how does the Potency read?
The Potency was inconclusive: 18.4 µM [falling, single point].

With `CCN(CC)C(=O)c1cn(CC)c(=O)c2cc(OC)c(OC)cc12` as the compound, how does the activity change, negative = inhibition read?
Its activity change, negative = inhibition is inconclusive: -6.34%.

With `COc1cccc(-c2nc(CS(=O)(=O)CC(=O)NCc3ccc4c(c3)OCO4)c(C)o2)c1` as the compound, how does the activity change, negative = inhibition read?
The activity change, negative = inhibition was inconclusive: -8.83%.

Which Potency does the source give for `N#Cc1ccc(/C=C/C(=O)c2ccc3c(c2)OCO3)cc1` here?
The Potency was inconclusive: 3.98 µM [falling, full curve, poor fit].

For `COc1ccc2c(CC(=O)Nc3ccc(OC)c(S(=O)(=O)N4CCOCC4)c3)coc2c1`, which activity change, negative = inhibition is on record?
Its activity change, negative = inhibition is inconclusive: -13.1%.

For `CCSc1ncc(/C=N/Nc2ccccc2)n1C`, which activity change, negative = inhibition is on record?
The activity change, negative = inhibition was “inactive”.

For `CC1CCC/C(=N\Nc2ccc(Cl)c(C(=O)O)c2)C1` (stereo not given), which Potency is on record?
Its Potency is inconclusive: 8.2 µM [falling, partial curve].

For `CC1CCCCN1S(=O)(=O)c1ccccc1[N+](=O)[O-]` (stereo not given), which activity change, negative = inhibition is on record?
Its activity change, negative = inhibition is inconclusive: 9.32%.

For `O=C(Nc1cccnc1Cl)C1=NN(c2ccccc2)C(=O)CC1`, which activity change, negative = inhibition is on record?
Its activity change, negative = inhibition is inconclusive: -21.1%.
